Test results: paper PMC9959553, “Promising Antifungal Molecules against Mucormycosis Agents Identified from Pandemic Response Box®: In Vitro and In Silico Analyses” (Journal of Fungi, 2023)

Tested on: R. oryzae UCP1295
Assay: Screening of the Pandemic Response Box library at 5 µM
Assay type: cell-based, Rhizopus oryzae
Conditions: 48 h, Table S1, mean of the four values
Description: Rhizopus oryzae UCP is the most prevalent Mucorales species in human infections and was used as a reference strain to screen the Pandemic Response Box® library. Screening was performed according to Rollin-Pinheiro and colleagues. Each compound was diluted in RPMI 1640 medium (Sigma Chemical Co., St. Louis, MO, USA), supplemented with 2% glucose and buffered with 3-(N-morpholino) propanesulfonic acid (MOPS) (Sigma Chemical Co., St. Louis, MO, USA) (0.165 mol/L, pH 7.2, from here on referred to as ‘supplemented RPMI’) to reach 5 μM in 96-well microtiter plates. Posaconazole (5 μM) and supplemented RPMI containing 1% DMSO were used as controls (both from Sigma Chemical Co., St. Louis, MO, USA). Conidia (2 × 10^5/mL) were added and incubated for 48 h at 37 °C in a 5% CO2 atmosphere. […] An inhibition of at least 60% was defined as the cut-off to select the promising drugs with antifungal activity against the Rhizopus species.

`Cl.Clc1ccc(COC(Cn2ccnc2)c2ccc(Cl)cc2Cl)c(Cl)c1` (stereo not shown) [MMV002722] was tested, and the “% of growth inhibition, Mean” value was -15.6%.
